Measurements from PubChem BioAssay AID248 (DTP/NCI, 2004).
The list does not hold the whole screen: it gathers tests that were run many times, whatever their T/C, doses with no T/C, and many T/C values between a quarter and a half above the control. Other doses and runs of a compound stand elsewhere. T/C gives the treated animals as a percentage of the vehicle group. Some doses have a count of surviving animals in place of a T/C: the source files T/C as zero there, which appears to mark a toxic dose or a test without result, not a measured value. Some doses without a T/C left all or most animals alive at the check, yet need not have been tolerated: the source hardly ever lists a survival T/C far under the control, and the zero likely stands for such cases as well. Survivors were counted at the toxicity check, usually on the fifth day, unless a day is given; later deaths do not show. Schedules are NCI's codes, taken here to give the interval after Q, in days (D) or hours (H), and the number of doses after X. Some entries hold several experiments; their values stand side by side, smallest first. Some schedules carry Z or #; the key to these is not given. For survival time, the PubChem record calls one and a half times the control and up active, and a quarter to a half above the control has no call in these data; cut-offs in other NCI protocols can differ.

Test system: L1210 leukemia ip in BDF1 mice, survival T/C
Assay: NCI In Vivo Anticancer Drug Screen. Data for tumor model L1210 Leukemia (intraperitoneal) in B6D2F1 (BDF1) mice
Settings: T/C endpoint: mean survival time, higher T/C = longer survival
[1] = dose: 66.0 mg/kg/injection, schedule: Q01DX015 (ip), vehicle: carboxymethylcellulose (CMC)
[2] = dose: 400.0 mg/kg/injection, schedule: Q01DX001 (ip), vehicle: carboxymethylcellulose (CMC)
[3] = dose: 300.0 mg/kg/injection, schedule: Q01DX001 (ip), vehicle: carboxymethylcellulose (CMC)
[4] = dose: 400.0 mg/kg/injection, schedule: Q04DX003 (ip), vehicle: saline with Tween-80
[5] = dose: 400.0 mg/kg/injection, schedule: Q01DX001 (ip), vehicle: saline
[6] = dose: 50.0 mg/kg/injection, schedule: Q04DX003 (ip), vehicle: saline with Tween-80
[7] = dose: 100.0 mg/kg/injection, schedule: Q01DX009 (ip), vehicle: Klucel (hydroxypropylcellulose) (HPC)
[8] = dose: 200.0 mg/kg/injection, schedule: Q01DX009 (ip), vehicle: Klucel (hydroxypropylcellulose) (HPC)
[9] = dose: 400.0 mg/kg/injection, schedule: Q01DX009 (ip), vehicle: Klucel (hydroxypropylcellulose) (HPC)
[10] = dose: 400.0 mg/kg/injection, schedule: Q04DX003 (ip), vehicle: Klucel (hydroxypropylcellulose) (HPC)

For `NNc1ncnc2c1ncn2C1OC(CO)C(O)C1O` (stereo unspecified), which T/C (dose: 36.5 mg/kg/injection, schedule: Q01DX015 (ip), vehicle: gum acacia, evaluated on day 5) is on record?
The T/C was 127 % of control.

And the T/C (dose: 36.5 mg/kg/injection, schedule: Q01DX015 (ip), vehicle: gum acacia, evaluated on day 45)?
The T/C was 127 % of control.

And the T/C (dose: 50.0 mg/kg/injection, schedule: Q01DX015 (ip), vehicle: carboxymethylcellulose (CMC))?
The T/C was 135 % of control.

What about the T/C (dose: 56.0 mg/kg/injection, schedule: Q01DX015 (ip), vehicle: gum acacia, evaluated on day 5) of the same compound?
The T/C was 126 % of control.

And the T/C (dose: 56.0 mg/kg/injection, schedule: Q01DX015 (ip), vehicle: gum acacia, evaluated on day 45)?
The T/C was 126 % of control.

What about the T/C [1] of the same compound?
The T/C was 136 % of control.

What about the survivor count [1] of the same compound?
The survivor count was 2 of 6.

And the T/C (dose: 75.0 mg/kg/injection, schedule: Q01DX015 (ip), vehicle: carboxymethylcellulose (CMC))?
The T/C was 131 % of control.

And the T/C (dose: 83.0 mg/kg/injection, schedule: Q01DX015 (ip), vehicle: gum acacia, evaluated on day 5)?
Its T/C is 136 % of control.

And the T/C (dose: 83.0 mg/kg/injection, schedule: Q01DX015 (ip), vehicle: gum acacia, evaluated on day 45)?
The T/C was 136 % of control.

And the T/C (dose: 100.0 mg/kg/injection, schedule: Q01DX015 (ip), vehicle: carboxymethylcellulose (CMC))?
The T/C was 136 % of control.

What about the T/C (dose: 124.5 mg/kg/injection, schedule: Q01DX015 (ip), vehicle: gum acacia, evaluated on day 5) of the same compound?
Its T/C is 143 % of control.

What about the T/C (dose: 124.5 mg/kg/injection, schedule: Q01DX015 (ip), vehicle: gum acacia, evaluated on day 45) of the same compound?
The T/C was 143 % of control.

And the T/C (dose: 150.0 mg/kg/injection, schedule: Q01DX015 (ip), vehicle: carboxymethylcellulose (CMC))?
The T/C was 136 % of control.

What about the survivor count (dose: 186.75 mg/kg/injection, schedule: Q01DX015 (ip), vehicle: gum acacia) of the same compound?
Its survivor count is 8 of 10.

And the survivor count (dose: 200.0 mg/kg/injection, schedule: Q01DX015 (ip), vehicle: carboxymethylcellulose (CMC))?
Its survivor count is 0 of 6.

What about the survivor count (dose: 250.0 mg/kg/injection, schedule: Q01DX015 (ip), vehicle: carboxymethylcellulose (CMC)) of the same compound?
Its survivor count is 0 of 6.

What about the survivor count [2] of the same compound?
The survivor count was 2 of 4.

Which survivor count (dose: 200.0 mg/kg/injection, schedule: Q01DX Z (ip), vehicle: carboxymethylcellulose (CMC)) does the source give for `COS(C)(=O)=O` here?
The survivor count was 0 of 6.

With `Oc1ccc(CN2CCCCC2)c2cccnc12` as the compound, how does the survivor count [3] read?
The survivor count was 3 of 6.

`CCC(C)C(CN)(CCCCN1CCCCC1)c1cccc2ccccc12` (stereo unspecified) was tested. Which survivor count [4] did it give?
Its survivor count is 0 of 6.

For `CCOC(=O)C(C#N)=C(C)C`, which survivor count (dose: 150.0 mg/kg/injection, schedule: Q01DX001 (ip), vehicle: other) is on record?
Its survivor count is 2 of 6.

What about the survivor count (dose: 200.0 mg/kg/injection, schedule: Q01DX001 (ip), vehicle: saline) of the same compound?
The survivor count was 1 of 4.

What about the survivor count (dose: 300.0 mg/kg/injection, schedule: Q01DX001 (ip), vehicle: other) of the same compound?
Its survivor count is 0 of 6.

What about the survivor count [5] of the same compound?
The survivor count was 0 of 4.

And the survivor count (dose: 400.0 mg/kg/injection, schedule: Q04DX003 (ip), vehicle: saline)?
The survivor count was 0 of 3.

For `C[n+]1ccn(Cc2ccc([N+](=O)[O-])cc2)c1`, which T/C [6] is on record?
The T/C was 146 % of control.

For `C#CC(C)(C)OCC(O)CCl` (stereo unspecified), which survivor count (dose: 400.0 mg/kg/injection, schedule: Q01DX009 (ip), vehicle: saline) is on record?
Its survivor count is 6 of 6.

Which results are given for `Cc1cc(C)c(NC(=O)Nc2ccccc2F)cc1C`?
survivor count [7]: 6 of 6; survivor count [8]: 6 of 6; survivor count [9]: 5 of 6 and 6 of 6

How did the survivor count [7] turn out when `CCc1ccc(NC(=O)c2ccco2)cc1` was run?
Its survivor count is 6 of 6.

And the survivor count [8]?
The survivor count was 0 of 6.

What about the survivor count [9] of the same compound?
The survivor count was 0 of 6.

Which survivor count [2] does the source give for `Cn1c(=O)[nH]c(=O)c2[nH]c(CO)nc21` here?
The survivor count was 4 of 4.

For `O=C(Cc1ccccc1)NCc1ccco1`, which survivor count [7] is on record?
The survivor count was 1 of 6.

And the survivor count (dose: 200.0 mg/kg/injection, schedule: Q04DX002 (ip), vehicle: Klucel (hydroxypropylcellulose) (HPC))?
Its survivor count is 0 of 3.

What about the survivor count (dose: 400.0 mg/kg/injection, schedule: Q04DX002 (ip), vehicle: Klucel (hydroxypropylcellulose) (HPC)) of the same compound?
Its survivor count is 0 of 3.

`O=C(Nc1cc(C(F)(F)F)cc(C(F)(F)F)c1)Nc1c(Oc2ccc(Cl)cc2Cl)ccc(Cl)c1S(=O)(=O)O` was tested. Which survivor count (dose: 400.0 mg/kg/injection, schedule: Q04DX003 (ip), vehicle: saline sonified) did it give?
Its survivor count is 3 of 6.

Which survivor count (dose: 200.0 mg/kg/injection, schedule: Q01DX009 (ip), vehicle: carboxymethylcellulose (CMC)) does the source give for `O=c1ccc2c(ccc3ncccc32)o1` here?
Its survivor count is 0 of 6.

For `O=S(=O)([O-])NC1CCCCC1.O=S(=O)([O-])NC1CCCCC1.[Hg+2].[Hg+2].[Hg+2].[O-2].[O-2]`, which survivor count (dose: 100.0 mg/kg/injection, schedule: Q04DX003 (ip), vehicle: Klucel (hydroxypropylcellulose) (HPC)) is on record?
Its survivor count is 1 of 6.

And the survivor count (dose: 200.0 mg/kg/injection, schedule: Q04DX003 (ip), vehicle: Klucel (hydroxypropylcellulose) (HPC))?
Its survivor count is 0 of 6.

What about the survivor count [10] of the same compound?
Its survivor count is 0 of 6.

How did the survivor count (dose: 225.0 mg/kg/injection, schedule: Q01DX009 (ip), vehicle: other) turn out when `O=C(Nc1ccc2cc(S(=O)(=O)O)ccc2c1)c1ccc(N=Nc2c(S(=O)(=O)O)cc3cc(S(=O)(=O)O)cc(NC(=O)c4ccccc4)c3c2O)cc1` was run?
Its survivor count is 0 of 6.

What about the survivor count [4] of the same compound?
Its survivor count is 5 of 6.

For `CC[n+]1cn(-c2ccc(S(=O)(=O)[O-])cc2)nn1`, which survivor count [5] is on record?
Its survivor count is 0 of 6.

Which survivor count (dose: 30.0 mg/kg/injection, schedule: Q01DX001 (ip), vehicle: carboxymethylcellulose (CMC)) does the source give for `NC1CC(c2ccccc2)NC(c2ccccc2)C1` (stereo unspecified) here?
Its survivor count is 0 of 6.

And the survivor count (dose: 60.0 mg/kg/injection, schedule: Q01DX001 (ip), vehicle: carboxymethylcellulose (CMC))?
Its survivor count is 0 of 6.

And the survivor count (dose: 75.0 mg/kg/injection, schedule: Q01DX001 (ip), vehicle: carboxymethylcellulose (CMC))?
Its survivor count is 0 of 6.

What about the survivor count (dose: 150.0 mg/kg/injection, schedule: Q01DX001 (ip), vehicle: carboxymethylcellulose (CMC)) of the same compound?
Its survivor count is 0 of 6.

And the survivor count [3]?
The survivor count was 0 of 6.

Which survivor count (dose: 100.0 mg/kg/injection, schedule: Q01DX009 (ip), vehicle: saline sonified) does the source give for `CC1CCC(NC(=O)NCCCl)CC1` (stereo unspecified) here?
Its survivor count is 6 of 6.

And the survivor count (dose: 200.0 mg/kg/injection, schedule: Q01DX009 (ip), vehicle: saline sonified)?
The survivor count was 6 of 6.

And the survivor count (dose: 400.0 mg/kg/injection, schedule: Q01DX009 (ip), vehicle: saline sonified)?
Its survivor count is 5 of 6.

How did the survivor count (dose: 50.0 mg/kg/injection, schedule: Q01DX001 (ip), vehicle: carboxymethylcellulose (CMC)) turn out when `C=C(NC(C)=O)C(O)c1ccc([N+](=O)[O-])cc1` (stereo unspecified) was run?
Its survivor count is 2 of 4.

With `CCCC[CH2][Pb]([CH2]CCCC)([CH2]CCCC)[O]C(C)=O` as the compound, how does the survivor count (dose: 100.0 mg/kg/injection, schedule: Q01DX001 (ip), vehicle: saline with Tween-80) read?
The survivor count was 2 of 6.

And the survivor count (dose: 200.0 mg/kg/injection, schedule: Q01DX001 (ip), vehicle: saline with Tween-80)?
The survivor count was 0 of 6.

And the survivor count (dose: 400.0 mg/kg/injection, schedule: Q01DX001 (ip), vehicle: saline with Tween-80)?
The survivor count was 0 of 6.

With `Cc1cc2nc(CBr)c(CBr)nc2cc1C` as the compound, how does the survivor count (dose: 25.0 mg/kg/injection, schedule: Q04DX003 (ip), vehicle: saline with Tween-80) read?
The survivor count was 4 of 6.

And the survivor count [6]?
Its survivor count is 0 of 6.

And the survivor count (dose: 100.0 mg/kg/injection, schedule: Q04DX003 (ip), vehicle: saline with Tween-80)?
Its survivor count is 4 of 6.

What about the survivor count (dose: 200.0 mg/kg/injection, schedule: Q04DX003 (ip), vehicle: saline with Tween-80) of the same compound?
Its survivor count is 0 of 6.

What about the survivor count [4] of the same compound?
Its survivor count is 0 of 6.

Which survivor count (dose: 120.0 mg/kg/injection, schedule: Q01DX Z (ip), vehicle: saline) does the source give for `CCCCCC(=C/c1ccccc1)/C=N/N=C(N)N` here?
The survivor count was 0 of 6.

What about the survivor count (dose: 240.0 mg/kg/injection, schedule: Q01DX Z (oral), vehicle: saline) of the same compound?
Its survivor count is 3 of 6.

With `Cc1cccc(N=P(c2ccccc2)(c2ccccc2)c2ccccc2)c1` as the compound, how does the survivor count [8] read?
The survivor count was 6 of 6.

What about the survivor count [10] of the same compound?
The survivor count was 4 of 6.

What does the source list for `C[Se]c1ncnc2c1ccn2C1OC(CO)C(O)C1O` (stereo unspecified)?
survivor count (dose: 100.0 mg/kg/injection, schedule: Q01DX005 (ip), vehicle: saline): 0 of 6; survivor count (dose: 100.0 mg/kg/injection, schedule: Q01DX009 (ip), vehicle: saline): 4 of 6; survivor count (dose: 200.0 mg/kg/injection, schedule: Q01DX005 (ip), vehicle: saline): 0 of 6; survivor count (dose: 200.0 mg/kg/injection, schedule: Q01DX009 (ip), vehicle: saline): 4 of 6
